Measurements: patent EP4806904A1, “POLYPEPTIDE AND USE THEREOF” (Sichuan Gooddoctor Panxi Pharmaceutical Co. Ltd, priority 2023, dated 2026)
For at least one compound, name, drawing or mass did not settle the structure.

Tested on: neural stem cell line C17.2
Experiment: Proliferation of neural stem cell line C17.2, BrdU, high-content imaging
Assay type: cell-based
Details: positive drug NBP 5 µM, 48 h, all 3 batches of experiments, vs blank control group

`CCCCC1OC(=O)c2ccccc21` (stereo not shown) [NBP, butylphthalide] was tested, and the “percentage of BrdU-positive cells” value was “significant differences”.
